# Results deposited as PubChem BioAssay AID652243 (Drosophila RNAi Screening Center, 2013).
# Purpose: 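Fly genes required for human androgen receptor driven transcription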 (primary screen)
# System: Drosophila S2R+ cells
# Knock-down reagent: long dsRNA against Drosophila genes
# Duration: 72 h (48 h, then 24 h hormone)
# Treatment: synthetic androgen R1881 at 10 nM for 24 h
# Measured: 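Per-well raw luminescence of the androgen-driven firefly reporter and of the Renilla control, two replicates each, without normalisation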
# Scale: firefly reporter light: higher = more light from androgen-responsive reporter; Renilla control light: higher = more constitutive control signal (cell number, transfection)
# Active means: 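Hit when the log firefly-to-Renilla ratio dropped or increased by a fixed fold versus the mean of GFP or LacZ controls across duplicate plates; lowering cut given as 1.5 and as 3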
# Calls: active = hit: reporter lowered or raised; inactive = no hit
# The deposit covers about 24,000 reagents; below is a random part of those that have a named target and a result. Of all reagents, 246 (1%) are marked active. 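Plates not normalised; calls are printed but the firefly/Renilla ratio behind them is not deposited; fold cut for lowering reported inconsistently.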 The raw values are shown without normalisation. A plus sign joins genes that one reagent is predicted to hit. Not given: the amount of reagent.
gene knocked down,dsRNA,"firefly reporter light, replicate 1","firefly reporter light, replicate 2","Renilla control light, replicate 1","Renilla control light, replicate 2",Call
CG32708 (GeneID 318161),DRSC18411,4.25e5,6.49e5,2.46e6,2.69e6,inactive
CG32708 (GeneID 318161),DRSC28419,2.84e5,2.87e5,6.57e5,7.38e5,inactive
CR43087 + CG34002,DRSC26854,3.34e5,3.12e5,7.06e5,9.87e5,inactive
RpL36 (GeneID 31009),DRSC18708,1.70e5,1.84e5,1.88e6,1.74e6,inactive
CG10254 (GeneID 42793),DRSC14153,32068,26975,5.27e5,3.07e5,inactive
CG10254 (GeneID 42793),DRSC29495,9.17e5,9.45e5,1.15e6,1.15e6,inactive
CG3557 (GeneID 33426),DRSC00614,8.58e5,8.15e5,3.25e6,2.02e6,inactive
CG33774 + l(2)k10201,DRSC37863,1.13e6,1.09e6,1.13e6,1.54e6,inactive
CG33462 (GeneID 2768841),DRSC22902,3.78e5,1.13e6,1.36e6,2.60e6,inactive
CG14362 (GeneID 41695),DRSC14824,1.62e5,1.72e5,2.61e6,2.49e6,inactive
Snmp2 (GeneID 38868),DRSC10228,2.07e5,2.68e5,2.71e6,2.90e6,inactive
Snmp2 (GeneID 38868),DRSC10843,67135,98039,1.12e6,1.01e6,inactive
TP53INP (GeneID 38543),DRSC08178,1.75e5,1.79e5,2.22e6,1.93e6,inactive
TP53INP (GeneID 38543),DRSC22552,1.05e6,8.93e5,1.11e6,9.40e5,inactive
TP53INP (GeneID 38543),DRSC25638,8.65e5,1.25e6,8.95e5,1.13e6,inactive
CG13102 (GeneID 34228),DRSC02202,2.28e5,2.14e5,1.61e6,1.09e6,inactive
CSN5 (GeneID 42000),DRSC16592,75525,91067,8.51e5,1.06e6,inactive
CSN5 (GeneID 42000),DRSC22381,9.53e5,7.84e5,2.62e6,1.87e6,inactive
CSN5 (GeneID 42000),DRSC27904,5.24e5,4.03e5,1.67e6,1.31e6,inactive
Vha100-1 (GeneID 43442),DRSC14148,1.22e5,83565,6.71e5,4.41e5,inactive
Vha100-1 (GeneID 43442),DRSC26617,2.18e5,2.08e5,9.30e5,7.09e5,inactive
Vha100-1 (GeneID 43442),DRSC38989,5.29e5,4.91e5,1.79e6,1.72e6,inactive

Next part, starting with the last 7 of the part before.
gene knocked down,dsRNA,"firefly reporter light, replicate 1","firefly reporter light, replicate 2","Renilla control light, replicate 1","Renilla control light, replicate 2",Call
CG13102 (GeneID 34228),DRSC02202,2.28e5,2.14e5,1.61e6,1.09e6,inactive
CSN5 (GeneID 42000),DRSC16592,75525,91067,8.51e5,1.06e6,inactive
CSN5 (GeneID 42000),DRSC22381,9.53e5,7.84e5,2.62e6,1.87e6,inactive
CSN5 (GeneID 42000),DRSC27904,5.24e5,4.03e5,1.67e6,1.31e6,inactive
Vha100-1 (GeneID 43442),DRSC14148,1.22e5,83565,6.71e5,4.41e5,inactive
Vha100-1 (GeneID 43442),DRSC26617,2.18e5,2.08e5,9.30e5,7.09e5,inactive
Vha100-1 (GeneID 43442),DRSC38989,5.29e5,4.91e5,1.79e6,1.72e6,inactive
hid (GeneID 40009),DRSC11316,1.91e5,2.04e5,1.55e6,2.04e6,inactive
hid (GeneID 40009),DRSC25461,6.77e5,6.28e5,1.21e6,7.57e5,inactive
Cyp4d8 (GeneID 38841),DRSC11131,1.23e6,9.77e5,1.03e6,1.21e6,inactive
Cyp4d8 (GeneID 38841),DRSC29268,4.16e5,4.26e5,1.52e6,1.17e6,inactive
ecd (GeneID 38291),DRSC08574,8.74e5,1.07e6,1.85e6,1.03e6,inactive
CG5418 (GeneID 34663),DRSC02857,2.21e5,1.91e5,1.81e6,2.28e6,inactive
CG5418 (GeneID 34663),DRSC25643,8.65e5,9.30e5,6.91e5,8.77e5,inactive
CG12780 (GeneID 35834),DRSC06169,5.24e5,3.82e5,2.06e6,1.72e6,inactive
CG15676 (GeneID 37472),DRSC04267,2.11e5,2.19e5,1.49e6,1.43e6,inactive
CG15676 (GeneID 37472),DRSC27015,6.64e5,5.06e5,4.04e5,2.94e5,inactive
CG43052 (GeneID 12798214),DRSC03059,2.12e5,2.63e5,2.85e6,2.88e6,inactive
CG30047 (GeneID 246414),DRSC05340,76080,56583,2.22e5,3.00e5,inactive
CG16837 (GeneID 37904),DRSC04283,3.68e5,4.58e5,1.54e6,1.90e6,inactive
CG16837 (GeneID 37904),DRSC26178,3.73e5,3.19e5,3.72e5,5.60e5,inactive
Or45a (GeneID 35958),DRSC07487,3.12e5,2.41e5,1.55e6,2.08e6,inactive
Or45a (GeneID 35958),DRSC27527,4.44e5,3.51e5,7.24e5,5.56e5,inactive
Torsin (GeneID 31399),DRSC18570,3.59e5,2.87e5,2.17e6,2.73e6,inactive
REPTOR-BP (GeneID 34371),DRSC02683,1.70e5,1.28e5,1.55e6,1.24e6,inactive
CG15239 (GeneID 31343),DRSC17972,2.94e5,3.29e5,3.49e6,2.91e6,inactive
CG15239 (GeneID 31343),DRSC25155,9.81e5,8.39e5,1.52e6,1.29e6,inactive
CG6073 (GeneID 43180),DRSC15962,5.44e5,6.24e5,4.78e6,2.60e6,inactive
CG6073 (GeneID 43180),DRSC22742,5.07e5,4.99e5,1.38e6,1.15e6,inactive
CG6073 (GeneID 43180),DRSC29018,4.45e5,4.86e5,1.25e6,1.15e6,inactive
CG1309 (GeneID 38519),DRSC08302,1.28e6,7.29e5,1.66e6,1.04e6,inactive
D19A (GeneID 38718),DRSC11133,6.74e5,5.90e5,6.29e5,1.05e6,inactive
D19A (GeneID 38718),DRSC26967,4.83e5,3.48e5,8.43e5,3.84e5,inactive
CG32413 (GeneID 318018),DRSC21591,5.81e5,5.38e5,2.74e6,2.83e6,inactive
Ythdc1 (GeneID 38420),DRSC08141,6.83e5,7.05e5,9.63e5,6.91e5,inactive
CG42568 + DnaJ-60,DRSC04207,2.02e5,2.28e5,1.46e6,1.65e6,inactive
CG42568 + DnaJ-60,DRSC04611,6.99e5,5.09e5,1.11e6,1.11e6,inactive
CG42568 + DnaJ-60,DRSC27072,3.58e5,4.27e5,7.39e5,7.22e5,inactive
CG13743 (GeneID 35911),DRSC22775,9.86e5,1.36e6,1.36e6,2.02e6,inactive
CG13743 (GeneID 35911),DRSC25575,1.03e6,1.02e6,9.37e5,1.04e6,inactive
CG13743 (GeneID 35911),DRSC39023,7.26e5,8.25e5,1.92e6,2.20e6,inactive
CG16965 (GeneID 34607),DRSC02547,1.28e5,2.22e5,9.98e5,9.00e5,inactive
CG34279 (GeneID 5740605),DRSC38654,8.07e5,7.32e5,1.62e6,1.69e6,inactive
